Measured values reported in PubChem BioAssay AID1347423 (Functional Genomics Laboratory (NCATS/FGL), 2020).
Among all 52,000 sequences or so, about 210 (0.4%) were called active.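 The calls were made as follows: active = gene whose silencing raises cell survival under the drug, median off-target-corrected z-score across its silencing RNAs 2 or more; inactive = the rest.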 This is one part of the list.

Experiment: Resistance to Poly (ADP-Ribose) Polymerase inhibitor: Gene Identification via Genome-wide siRNA Screen
Conditions: mouse BRCA2 R2336H ES cells, olaparib, CellTiter-Glo viability; stronger effect = higher value
Text: The role of Poly (ADP-Ribose) Polymerase (PARP) proteins in DNA repair has been elegantly utilized for the synthetic lethality-based treatment of BRCA-deficient tumors by PARP inhibitors. PARP inhibitors are now being used for treatment of BRCA-deficient breast and ovarian cancers. […] While several mechanisms of drug resistance have been identified, majority of these tumors develop drug resistance due to unknown causes. To identified novel regulators of chemo-resistance in BRCA2-mutated cells, we performed a genome wide siRNA library screen. We have found ES cells expressing a hypomorphic allele of BRCA2 to be hypersensitive to PAPP inhibitors (such as olaparib). We used ES cells expressing a mutant allele of BRCA2 that has a single amino acid substitution at position 2336 (arginine to histidine, R2336H). The screen was conducted using an Ambion (Thermo) Silencer Mouse Genome siRNA collection. The library targets 17,575 mouse genes with 3 siRNAs per gene. TET2 (E130014J05Rik) was identified as a top candidate.
Transfections were performed in 384 well plates (Corning 3707). Plates were coated with 0.1% gelatin in H2O overnight at ambient temperature. Gelatin solution was aspirated (BioTek EL406) and siRNAs were printed using a Bravo VPrep liquid handler integrated within a BioCel automation platform (Agilent). Cell viability was measured using CellTiter Glo (Promega). For transfections, […] of serum free media containing Lipofectamine RNAiMax […] was added to wells containing siRNA (0.8pmol). Lipid and siRNA were allowed to complex for 45 min at ambient temperature before addition of 1000 cells in DMEM, 30% FBS to yield final transfection mixtures containing 20 nM siRNA in DMEM, 15% FBS. PARPi (olaparib, AZD2281) was added 48 h post-transfection (500 nM) and viability (CellTiter Glo, Promega) was assayed 72 h later on a PerkinElmer Envision 2104 Multilabel plate reader. Ambion Silencer Select Negative Control #2 was incorporated on all screening plates (16 wells) and the median negative control value on each plate was used for normalization. An siRNA targeting Trp53 was used as a positive control. This control yielded a median protective effect of ~1.9 fold versus negative control throughout the screen. The median absolute deviation (MAD) based z-score was calculated for each siRNA. Genes were then ranked by taking the median value for all siRNAs tested against a given gene. Scores were also adjusted for seed-based off-target effects to help deprioritize likely false positives.

Sequence | z-score
GCCGAGCUUUUGUGAGUAUTT against Rhobtb2 | inactive: 0.769
GCUUCAGCGUGAAAAAGCCTT against AI467484 | inactive: -0.382
CCACAAAUAUGGUAGGUUCTT against 9030409E16Rik | inactive: -0.318
CGGAGGAGAUAUUUAACCATT against 2810012L14Rik | inactive: 0.0161
GCGAACUCCUCUUUAGGCATT against Chrng | active: -0.258
GGAUUCUUGAAGCUGUUUUTT against 0610007H07Rik | inactive: 3.96
GCUAAGUUCCAAGGCGACCTT against Serpinh1 | inactive: 0.41
GCAGGCAUUCUGCUCUAUATT against Oxgr1 | inactive: 1.54
CCUUUUACUGCUCACCGACTT against 2810453L12Rik | inactive: -0.26
GGACUCCAAGAUCAUGGUCTT against Pnck | inactive: 0.263
GCAAAUAGGAGCUAGCCCUTT against Met | inactive: -0.301
GGAAAUAGCUGAAGACAAATT against Tacc3 | inactive: -2.25
GGAAUAGGAUCUAAUCUAATT against 4930485D02Rik | inactive: -0.372
CCUUCAUGCAACCAGAGGUTT against Ptp4a3 | inactive: 0.263
GGAUGUGGAAACCACUAGGTT against Bst2 | inactive: 0.051
CCAAUUUAAGCAGAUGAGCTT against 4930556L07Rik | inactive: 0.63
CGUUUCAGAGUGUUUGUGGTT against 1110067D22Rik | inactive: 0.41
GGAAAAGAUUGUCUUUGAUTT against Nup133 | inactive: -0.637
GGUGGAACUCGUCAAUAGCTT against Vat1 | inactive: 0.101
GCUGUGAACCUAGAGCGUGTT against 2310066I18Rik | inactive: -1.54
CCGCCUUCGGGAAUUCUUUTT against Trim25 | inactive: 0.0517
GGUGAAGUGUGAAACAAUGTT against Ube2m | inactive: -0.923
CGAGCUUUGAAAGUUUAAUTT against Pcsk2 | inactive: 1.12
GCCCAUUUUAGCUAGAAUCTT against Cd300lg | inactive: 0.548
GCGGUGAUGAGAGAAACCATT against Zfp617 | inactive: 0.554
CCCACCUUUGGUUCAGAACTT against 1500010J02Rik | inactive: 0.758

Sequence | z-score
GGGAAGAAAAUGAAAGGUUTT against Cdk5rap2 | inactive: -1.59
GGCAGAAGAAGUGGCCAAGTT against Elk3 | inactive: -0.927
GCUACUCCCUGCAUAUUAGTT against Slamf9 | inactive: -1.34
GGAGGAUGAGAUGAUGCCATT against Sez6l2 | inactive: 0.496
GGAAACAACAGAAUAAAGCTT against Chrm1 | inactive: 0.785
GGGAAGGGUGAAGAACAGGTT against Ifrd2 | inactive: 0.169
CCUGCAUCACGUUAGUUACTT against Ankrd28 | inactive: 0.782
GGACCCACAACUCCCUUUUTT against Thap7 | inactive: -0.587
GGUCUUCUCCGAGUACUUUTT against Ap1m1 | inactive: 0.963
GCAGUGACGACCAAAAAUCTT against Ttc12 | inactive: -0.525
GUGUAUCCCAGGCUAUCACTT against V1rc27 | inactive: 0.0617
GCAUGAAGAGCUAAUGCUATT against Eprs | inactive: -0.075
GGGAUCUGGAUUUAAUUUGTT against Arf5 | inactive: 0.418
GCCAUCUGUAGUGACCAGATT against Notch2 | inactive: 0.372
GCAGCGUACAAAUCCUUCUTT against Numb | inactive: 1.11
CCAAAUCGUACUGGAAGACTT against Ttr | inactive: -0.00857
GGCUUCAUCAUGCUCAUUGTT against Mllt1 | inactive: 3.37
GCACAGUGGAUGCAAUCAGTT against Btbd1 | inactive: 0.346
CCAUAGUAGCUACCUUGAUTT against BC055107 | inactive: -0.49
GCUGGAUAGCUAAAAUGAUTT against E230026N22Rik | inactive: 0.0925
CCAAUUAGCCUAGGUUUGGTT against Olfr799 | inactive: -1.37
GCUUAUCUAUUGAGAGAGATT against Hs3st3b | inactive: -0.325
GGAACAGGAGAAUGACAUCTT against 9030221A05Rik | inactive: -0.724
GGGUGAAAGCUGACUUUAATT against Rnh1 | inactive: -2
GCGGAAACAAUCCAUUUAATT against Pcdhgb7 | inactive: -0.14
CCAUCUCUCUAAUGAUUGATT against Txndc5 | inactive: -1.04

Part of the list above, reformatted.
CCACAAAUAUGGUAGGUUCTT against 9030409E16Rik
  z-score: inactive: -0.318
GGAAAAGAUUGUCUUUGAUTT against Nup133
  z-score: inactive: -0.637
GCCAUCUGUAGUGACCAGATT against Notch2
  z-score: inactive: 0.372

(continued)

Sequence | z-score
GGUUUUUCUGAGUUUCCGUTT against Il4i1 | inactive: -0.196
GAAAUUAGAACAACUUUGGTT against 3830403N18Rik | inactive: -0.632
GGAAAAAGAAGCAAGAGCUTT against Mark3 | inactive: -0.025
GCAAAUUAAGAUGUGCUGATT against 2410004I17Rik | inactive: -1.36
CCAAUCUCCUGUUGUUAAATT against Mlf1 | inactive: 0.426
CGAUCAUCGCUCAGUAUAATT against Dlgh4 | inactive: -1.48
GGUUCAGAAUUUUUCCUUCTT against Olfr330 | inactive: 1.18
GGGAAAAAGCUGGGAAUAUTT against A930014K01Rik | inactive: -1.51
GGAGGAUCUUUCAAAGAGATT against Egfl8 | inactive: 1.87
GGGCAGUCAAAACGAAGAGTT against 2610206B13Rik | inactive: -1.48
GGAUUUAACAGAGAUACUGTT against H2-M11 | inactive: -0.405
GCAUAGACAUGGCUGCAUUTT against Arntl2 | inactive: -0.228
GCCAGAUGGUACGAAUGGCTT against Cdc5l | inactive: -0.638
GGCCAGAAGAACUAACAGUTT against Cept1 | inactive: -1.8
GGAUGACGUAAUUGACGGCTT against Cyp19a1 | inactive: 1.47
CCCAGAUGAACAAAUGACCTT against A630018P17Rik | inactive: 0.748
GGCAAAGAGAGAAUUAAAUTT against Ssx2ip | inactive: 0.322
GGGUCAUUUCCUAUGCAGGTT against Olfr866 | inactive: -0.404
GGUUCAACUCUGUGGUCACTT against C1qg | inactive: 0.585
GGAAAUUCACUUCAAUGAUTT against F730015K02Rik | inactive: 0.22
GCUGUAGUUUCAGUAGAUUTT against 3110001H15Rik | inactive: -0.926
GGGCUUCCUUAUGAAUUGATT against Rbmx2 | inactive: 0.821
GGAUUCCUUUCACAAGGCCTT against Rab17 | inactive: 1.63
GCGUGGGAUGCUCAUUUUATT against AY534253 | inactive: 0.914
GCUUUAGUUGCUUUCCCUGTT against Try10l | inactive: -1.24
GGCCUCACAGUGCUUUCUCTT against Olfr1232 | inactive: 0.68

Some of the entries so far, with each value named:
CGAUCAUCGCUCAGUAUAATT against Dlgh4
  z-score: inactive: -1.48
GGUUCAGAAUUUUUCCUUCTT against Olfr330
  z-score: inactive: 1.18
GGGAAAAAGCUGGGAAUAUTT against A930014K01Rik
  z-score: inactive: -1.51

(cont.)

Sequence | z-score
GGCUAUCUUGCUGCUGGUUTT against V1rc16 | inactive: 1.44
GGAUAUACAUGGUCUGUUUTT against Birc1e | inactive: 0.0633
GCUCCUUUAGUCCUCACCATT against Mrpl10 | inactive: -2.8
GGAAUGGAGUCCUAGUCCATT against Spdef | inactive: -0.609
CCUGAUGGCUUUCAUCUUATT against Olfr815 | inactive: 0.494
GCCAGAACCUGACUUAUAUTT against Mia2 | inactive: -0.739
GGUGGAUUCUCCACUGUUUTT against Bmp2k | inactive: 0.0882
CGCGGCUUCUCAAAAAGCATT against Nkx6-2 | inactive: 0.836
CCAAGAGCCUUUCUAACAATT against Pnrc2 | inactive: -1.09
CCCUAUGGUUUAUAUGAAUTT against Ptk2b | inactive: 0.474
GCCGGUGACUGUUGUGUAUTT against Mppe1 | inactive: 0.286
AGUGGGCUUCAAAUUUCCATT against Aym1 | inactive: 0.293
GGAAGAGAAUGUGAAGCUGTT against Aqp3 | inactive: 2.32
GGGAGAACACAUCUACUGATT against Slamf6 | inactive: -0.624
GGAGGAUUCCCUUGUUCAATT against Rhbdl7 | inactive: -0.78
CCUUCUUGAAAACUCCAAGTT against Lum | inactive: 0.0735
GGGUAAAAAGUUUGACAAGTT against 2810485I05Rik | inactive: 1.19
GCAUUUUGACCCAAGUGUUTT against Foxq1 | inactive: 0.0651
CCCAGAACUAUUCAACACUTT against Sema4g | inactive: 1.4
GCUACGUCUUUUUUAGGGCTT against 1110025G12Rik | inactive: 1.69
GUGAAGGCCCAUGGCAAGATT against Hbb-b1 | inactive: -1.73
GGACCUAAAGAUAAUAAGUTT against Pex3 | inactive: -0.406
AUAAGGAUGUCCAUCUUGCTT against Olfr884 | inactive: -0.243
GGGAACACCCACGAACUCATT against Polrmt | inactive: 1.02
CGACGAAGUGGUCGGAAUUTT against Cryzl1 | inactive: -0.0662
GCAAAGCUUCUUUUGGGAUTT against Runx2 | inactive: 0.243
